# Results published in patent publication US11292821B2, “Peptides and combination of peptides for use in immunotherapy against lung cancer, including NSCLC, SCLC and other cancers” (Immatics Biotechnologies GmbH, priority 2017, dated 2022).
# System: tumor tissue samples
# Experiment: Identification and relative quantitation of HLA-presented tumor associated peptides by LC-MS (presentation profile)
# Set-up: species or system human
# Conditions: HLA-A*24 cancer tissues vs HLA-A*24 normal samples (N=19 normal, N=94 tumor); FIGS. 1A-1B
row,Substance,over-presentation of peptide in cancer tissues compared to normal samples
1,SEQ ID NO.: 65 (VYPASKMFPFI; listed as Homo sapiens),over-presentation

# Same assay, conditions: cancer entities on which the peptide is presented (Table 8)
row,Substance,presentation on various cancer entities
1,SEQ ID No. 11 (YYSKSVGFMQW; listed as Homo sapiens),"melanoma, ovarian cancer and uterine cancer"

# Same assay, conditions: cancer entities on which the tumor-associated peptide was found presented (HLA ligandome LC-MS); abbreviations per table footnote
row,Substance,Peptide Presentation on cancer entities
1,425 (NLDIIQQEY; listed as Homo sapiens) [compound 425],"GBM, GC, HCC, MEL, NHL, OC, OSCAR, PRCA, UEC"
2,13 (HYTYILEVF; listed as Homo sapiens) [compound 13],"GC, UEC"
3,428 (NSELSCQLY; listed as Homo sapiens) [compound 428],"GBM, GC, MEL, RCC"
4,48 (VFIDHPVHLKF; listed as Homo sapiens) [compound 48],UEC
5,343 (TEFTTVLY; listed as Homo sapiens) [compound 343],"GBM, NHL, PRCA"
6,84: peptide found in MMP12 (gene looked up) (YVDINTFRL; listed as Homo sapiens) [compound 84],HCC
7,204 (AVFDKFIRY; listed as Homo sapiens) [compound 204],GBM
8,455 (RIADIFVKK; listed as Homo sapiens) [compound 455],"GC, MEL, NHL, OC, UEC"
9,363 (AELDKLTSV; listed as Homo sapiens) [compound 363],"GBM, UEC"
10,288 (FPQKFIDLL; listed as Homo sapiens) [compound 288],UEC
11,207 (RSFNGLLTMY; listed as Homo sapiens) [compound 207],"MEL, OC"
12,373 (MEMQKSPVF; listed as Homo sapiens) [compound 373],"NHL, OC"
13,107 (LLQGAIESV; listed as Homo sapiens) [compound 107],"BRCA, CLL, CRC, HNSCC, MEL, NHL, UBC, UEC"
14,416 (LLDTAQKNLY; listed as Homo sapiens) [compound 416],"GBM, NHL, PRCA"
15,407 (FSDNDKLYLY; listed as Homo sapiens) [compound 407],"GBM, GC, MEL, NHL, PRCA, UEC"
16,439 (TLDAGKFQIY; listed as Homo sapiens) [compound 439],"GC, HCC, MEL, NHL, PRCA, UEC"
17,259 (RPPAAGLRGISL; listed as Homo sapiens) [compound 259],GBM
18,436 (QTETGTPYMLY; listed as Homo sapiens) [compound 436],"GBM, GC, MEL, NHL, OC, OSCAR, PRCA, UEC"
19,139 (ECDMAFHIY; listed as Homo sapiens) [compound 139],"MEL, OC"
20,166 (NTQITDIGRY; listed as Homo sapiens) [compound 166],MEL
21,402 (DTDSQRLAY; listed as Homo sapiens) [compound 402],"GBM, GC, MEL"
22,335 (KELEATKQY; listed as Homo sapiens) [compound 335],"MEL, NHL"
23,371 (GELALKKKI; listed as Homo sapiens) [compound 371],UEC
24,415 (LLDPRSYHTY; listed as Homo sapiens) [compound 415],"GC, NHL"
25,70 (PYTNYTFDF; listed as Homo sapiens) [compound 70],"GC, MEL"
